At least one structure is not confirmed: it was looked up by name or label, or the drawing left a doubt.
Test system: HLM01, HLM02 and HLM05
Assay: Chemical sensitivity analysis, Cluster A strains
Assay type: cell-based, Rhodobacter sphaeroides
Settings: 48 hours, OD 595 nm, conc. per Table 4B

CO[C@H]1/C=C/O[C@@]2(C)Oc3c(C)c(O)c4c(O)c(c(/C=N/N5CCN(C)CC5)c(O)c4c3C2=O)NC(=O)/C(C)=C\C=C\[C@H](C)[C@H](O)[C@@H](C)[C@@H](O)[C@@H](C)[C@H](OC(C)=O)[C@@H]1C [rifampicin]
sensitivity compared to the parent strain (relative growth, cluster * in FIG. 3): sensitive
